# Measurements as given in PMC10371797.
# Results are given in words; binding and its absence hold for the method and conditions named. In cells and extracts the contact can be indirect. Some entries that bind do so weakly or less than the wild type. Where a sequence is shown, tags or fusion partners need not be part of it.
# T1: PABPN1-Flag (UniProt Q86U42)
# T1 sequence: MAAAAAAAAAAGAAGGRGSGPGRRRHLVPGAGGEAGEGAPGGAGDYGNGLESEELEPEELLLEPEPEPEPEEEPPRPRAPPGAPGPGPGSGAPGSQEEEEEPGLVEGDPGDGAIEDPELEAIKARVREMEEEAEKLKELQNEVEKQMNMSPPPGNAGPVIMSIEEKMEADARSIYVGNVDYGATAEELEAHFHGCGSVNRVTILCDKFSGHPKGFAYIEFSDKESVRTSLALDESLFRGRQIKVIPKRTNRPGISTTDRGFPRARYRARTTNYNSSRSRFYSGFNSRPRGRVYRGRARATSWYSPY
# T2: ZC3H11A(3C>A)-Flag (human) (UniProt O75152)
# T2 sequence: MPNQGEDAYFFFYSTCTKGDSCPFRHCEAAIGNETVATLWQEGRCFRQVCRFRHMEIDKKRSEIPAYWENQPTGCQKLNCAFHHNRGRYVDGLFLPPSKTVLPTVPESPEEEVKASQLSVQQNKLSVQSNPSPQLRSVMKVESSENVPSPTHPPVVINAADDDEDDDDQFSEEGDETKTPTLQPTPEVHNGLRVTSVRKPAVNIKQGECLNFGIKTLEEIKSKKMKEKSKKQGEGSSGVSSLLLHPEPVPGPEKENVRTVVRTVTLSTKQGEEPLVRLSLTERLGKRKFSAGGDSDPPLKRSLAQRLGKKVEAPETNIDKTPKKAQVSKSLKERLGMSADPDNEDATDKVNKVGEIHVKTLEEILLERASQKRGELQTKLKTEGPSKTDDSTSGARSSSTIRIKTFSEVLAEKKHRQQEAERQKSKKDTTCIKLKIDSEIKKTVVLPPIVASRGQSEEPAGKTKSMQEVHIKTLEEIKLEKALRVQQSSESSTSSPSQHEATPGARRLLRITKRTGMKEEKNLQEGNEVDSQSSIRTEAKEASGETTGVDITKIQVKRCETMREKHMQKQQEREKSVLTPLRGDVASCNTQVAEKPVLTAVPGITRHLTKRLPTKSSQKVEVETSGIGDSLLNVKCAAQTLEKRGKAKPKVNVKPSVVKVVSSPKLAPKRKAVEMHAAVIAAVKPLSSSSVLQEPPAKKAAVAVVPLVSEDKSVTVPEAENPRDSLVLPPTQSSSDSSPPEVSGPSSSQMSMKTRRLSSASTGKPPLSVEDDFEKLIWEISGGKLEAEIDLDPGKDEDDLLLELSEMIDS
# Assays:
# Test in all cases: co-IP
# PABPN1-Flag = target: T1, PABPN1-Flag
# [1] = target: T2, ZC3H11A(3C>A)-Flag (human)
# ZC3H11A(wt)-Flag (human) = ZC3H11A(wt)-Flag (human) (UniProt O75152)
Binder,binding (PABPN1-Flag),binding [1],binding (ZC3H11A(wt)-Flag (human))
"THOC1-HA (protein, UniProt Q96FV9 1-657) MSPTPPLFSLPEARTRFTKSTREALNNKNIKPLLSTFSQVPGSENEKKCTLDQAFRGILEEEIINHSSCENVLAIISLAIGGVTEGICTASTPFVLLGDVLDCLPLDQCDTIFTFVEKNVATWKSNTFYSAGKNYLLRMCNDLLRRLSKSQNTVFCGRIQLFLARLFPLSEKSGLNLQSQFNLENVTVFNTNEQESTLGQKHTEDREEGMDVEEGEMGDEEAPTTCSIPIDYNLYRKFWSLQDYFRNPVQCYEKISWKTFLKYSEEVLAVFKSYKLDDTQASRKKMEELKTGGEHVYFAKFLTSEKLMDLQLSDSNFRRHILLQYLILFQYLKGQVKFKSSNYVLTDEQSLWIEDTTKSVYQLLSENPPDGERFSKMVEHILNTEENWNSWKNEGCPSFVKERTSDTKPTRIIRKRTAPEDFLGKGPTKKILMGNEELTRLWNLCPDNMEACKSETREHMPTLEEFFEEAIEQADPENMVENEYKAVNNSNYGWRALRLLARRSPHFFQPTNQQFKSLPEYLENMVIKLAKELPPPSEEIKTGEDEDEEDNDALLKENESPDVRRDKPVTGEQIEVFANKLGEQWKILAPYLEMKDSEIRQIECDSEDMKMRAKQLLVAWQDQEGVHATPENLINALNKSGLSDLAESLTNDNETNS",–,binds,binds
"ZC3H11A(3C>A)-HA (protein, UniProt O75152 1-810) MPNQGEDAYFFFYSTCTKGDSCPFRHCEAAIGNETVATLWQEGRCFRQVCRFRHMEIDKKRSEIPAYWENQPTGCQKLNCAFHHNRGRYVDGLFLPPSKTVLPTVPESPEEEVKASQLSVQQNKLSVQSNPSPQLRSVMKVESSENVPSPTHPPVVINAADDDEDDDDQFSEEGDETKTPTLQPTPEVHNGLRVTSVRKPAVNIKQGECLNFGIKTLEEIKSKKMKEKSKKQGEGSSGVSSLLLHPEPVPGPEKENVRTVVRTVTLSTKQGEEPLVRLSLTERLGKRKFSAGGDSDPPLKRSLAQRLGKKVEAPETNIDKTPKKAQVSKSLKERLGMSADPDNEDATDKVNKVGEIHVKTLEEILLERASQKRGELQTKLKTEGPSKTDDSTSGARSSSTIRIKTFSEVLAEKKHRQQEAERQKSKKDTTCIKLKIDSEIKKTVVLPPIVASRGQSEEPAGKTKSMQEVHIKTLEEIKLEKALRVQQSSESSTSSPSQHEATPGARRLLRITKRTGMKEEKNLQEGNEVDSQSSIRTEAKEASGETTGVDITKIQVKRCETMREKHMQKQQEREKSVLTPLRGDVASCNTQVAEKPVLTAVPGITRHLTKRLPTKSSQKVEVETSGIGDSLLNVKCAAQTLEKRGKAKPKVNVKPSVVKVVSSPKLAPKRKAVEMHAAVIAAVKPLSSSSVLQEPPAKKAAVAVVPLVSEDKSVTVPEAENPRDSLVLPPTQSSSDSSPPEVSGPSSSQMSMKTRRLSSASTGKPPLSVEDDFEKLIWEISGGKLEAEIDLDPGKDEDDLLLELSEMIDS",no binding,–,–

# Further lines, results first:
binding (PABPN1-Flag),binding [1],binding (ZC3H11A(wt)-Flag (human)),Binder
no binding,–,–,"ZC3H11A(dZF)-HA (domain or fragment, UniProt O75152 87-810) GRYVDGLFLPPSKTVLPTVPESPEEEVKASQLSVQQNKLSVQSNPSPQLRSVMKVESSENVPSPTHPPVVINAADDDEDDDDQFSEEGDETKTPTLQPTPEVHNGLRVTSVRKPAVNIKQGECLNFGIKTLEEIKSKKMKEKSKKQGEGSSGVSSLLLHPEPVPGPEKENVRTVVRTVTLSTKQGEEPLVRLSLTERLGKRKFSAGGDSDPPLKRSLAQRLGKKVEAPETNIDKTPKKAQVSKSLKERLGMSADPDNEDATDKVNKVGEIHVKTLEEILLERASQKRGELQTKLKTEGPSKTDDSTSGARSSSTIRIKTFSEVLAEKKHRQQEAERQKSKKDTTCIKLKIDSEIKKTVVLPPIVASRGQSEEPAGKTKSMQEVHIKTLEEIKLEKALRVQQSSESSTSSPSQHEATPGARRLLRITKRTGMKEEKNLQEGNEVDSQSSIRTEAKEASGETTGVDITKIQVKRCETMREKHMQKQQEREKSVLTPLRGDVASCNTQVAEKPVLTAVPGITRHLTKRLPTKSSQKVEVETSGIGDSLLNVKCAAQTLEKRGKAKPKVNVKPSVVKVVSSPKLAPKRKAVEMHAAVIAAVKPLSSSSVLQEPPAKKAAVAVVPLVSEDKSVTVPEAENPRDSLVLPPTQSSSDSSPPEVSGPSSSQMSMKTRRLSSASTGKPPLSVEDDFEKLIWEISGGKLEAEIDLDPGKDEDDLLLELSEMIDS"
binds,–,–,"ZC3H11A(C37A)-HA (protein, UniProt O75152 1-810) MPNQGEDCYFFFYSTCTKGDSCPFRHCEAAIGNETVATLWQEGRCFRQVCRFRHMEIDKKRSEIPCYWENQPTGCQKLNCAFHHNRGRYVDGLFLPPSKTVLPTVPESPEEEVKASQLSVQQNKLSVQSNPSPQLRSVMKVESSENVPSPTHPPVVINAADDDEDDDDQFSEEGDETKTPTLQPTPEVHNGLRVTSVRKPAVNIKQGECLNFGIKTLEEIKSKKMKEKSKKQGEGSSGVSSLLLHPEPVPGPEKENVRTVVRTVTLSTKQGEEPLVRLSLTERLGKRKFSAGGDSDPPLKRSLAQRLGKKVEAPETNIDKTPKKAQVSKSLKERLGMSADPDNEDATDKVNKVGEIHVKTLEEILLERASQKRGELQTKLKTEGPSKTDDSTSGARSSSTIRIKTFSEVLAEKKHRQQEAERQKSKKDTTCIKLKIDSEIKKTVVLPPIVASRGQSEEPAGKTKSMQEVHIKTLEEIKLEKALRVQQSSESSTSSPSQHEATPGARRLLRITKRTGMKEEKNLQEGNEVDSQSSIRTEAKEASGETTGVDITKIQVKRCETMREKHMQKQQEREKSVLTPLRGDVASCNTQVAEKPVLTAVPGITRHLTKRLPTKSSQKVEVETSGIGDSLLNVKCAAQTLEKRGKAKPKVNVKPSVVKVVSSPKLAPKRKAVEMHAAVIAAVKPLSSSSVLQEPPAKKAAVAVVPLVSEDKSVTVPEAENPRDSLVLPPTQSSSDSSPPEVSGPSSSQMSMKTRRLSSASTGKPPLSVEDDFEKLIWEISGGKLEAEIDLDPGKDEDDLLLELSEMIDS"
no binding,–,–,"ZC3H11A(C66A)-HA (protein, UniProt O75152 1-810) MPNQGEDCYFFFYSTCTKGDSCPFRHCEAAIGNETVCTLWQEGRCFRQVCRFRHMEIDKKRSEIPAYWENQPTGCQKLNCAFHHNRGRYVDGLFLPPSKTVLPTVPESPEEEVKASQLSVQQNKLSVQSNPSPQLRSVMKVESSENVPSPTHPPVVINAADDDEDDDDQFSEEGDETKTPTLQPTPEVHNGLRVTSVRKPAVNIKQGECLNFGIKTLEEIKSKKMKEKSKKQGEGSSGVSSLLLHPEPVPGPEKENVRTVVRTVTLSTKQGEEPLVRLSLTERLGKRKFSAGGDSDPPLKRSLAQRLGKKVEAPETNIDKTPKKAQVSKSLKERLGMSADPDNEDATDKVNKVGEIHVKTLEEILLERASQKRGELQTKLKTEGPSKTDDSTSGARSSSTIRIKTFSEVLAEKKHRQQEAERQKSKKDTTCIKLKIDSEIKKTVVLPPIVASRGQSEEPAGKTKSMQEVHIKTLEEIKLEKALRVQQSSESSTSSPSQHEATPGARRLLRITKRTGMKEEKNLQEGNEVDSQSSIRTEAKEASGETTGVDITKIQVKRCETMREKHMQKQQEREKSVLTPLRGDVASCNTQVAEKPVLTAVPGITRHLTKRLPTKSSQKVEVETSGIGDSLLNVKCAAQTLEKRGKAKPKVNVKPSVVKVVSSPKLAPKRKAVEMHAAVIAAVKPLSSSSVLQEPPAKKAAVAVVPLVSEDKSVTVPEAENPRDSLVLPPTQSSSDSSPPEVSGPSSSQMSMKTRRLSSASTGKPPLSVEDDFEKLIWEISGGKLEAEIDLDPGKDEDDLLLELSEMIDS"
no binding,–,–,"ZC3H11A(C8A)-HA (protein, UniProt O75152 1-810) MPNQGEDAYFFFYSTCTKGDSCPFRHCEAAIGNETVCTLWQEGRCFRQVCRFRHMEIDKKRSEIPCYWENQPTGCQKLNCAFHHNRGRYVDGLFLPPSKTVLPTVPESPEEEVKASQLSVQQNKLSVQSNPSPQLRSVMKVESSENVPSPTHPPVVINAADDDEDDDDQFSEEGDETKTPTLQPTPEVHNGLRVTSVRKPAVNIKQGECLNFGIKTLEEIKSKKMKEKSKKQGEGSSGVSSLLLHPEPVPGPEKENVRTVVRTVTLSTKQGEEPLVRLSLTERLGKRKFSAGGDSDPPLKRSLAQRLGKKVEAPETNIDKTPKKAQVSKSLKERLGMSADPDNEDATDKVNKVGEIHVKTLEEILLERASQKRGELQTKLKTEGPSKTDDSTSGARSSSTIRIKTFSEVLAEKKHRQQEAERQKSKKDTTCIKLKIDSEIKKTVVLPPIVASRGQSEEPAGKTKSMQEVHIKTLEEIKLEKALRVQQSSESSTSSPSQHEATPGARRLLRITKRTGMKEEKNLQEGNEVDSQSSIRTEAKEASGETTGVDITKIQVKRCETMREKHMQKQQEREKSVLTPLRGDVASCNTQVAEKPVLTAVPGITRHLTKRLPTKSSQKVEVETSGIGDSLLNVKCAAQTLEKRGKAKPKVNVKPSVVKVVSSPKLAPKRKAVEMHAAVIAAVKPLSSSSVLQEPPAKKAAVAVVPLVSEDKSVTVPEAENPRDSLVLPPTQSSSDSSPPEVSGPSSSQMSMKTRRLSSASTGKPPLSVEDDFEKLIWEISGGKLEAEIDLDPGKDEDDLLLELSEMIDS"
